# Measured values published in PubChem BioAssay AID2685 (National Center for Advancing Translational Sciences (NCATS), 2010).
# The other results are listed elsewhere or left out. Further columns of the screen follow, without active or inactive calls. The list favours compounds with an active or inconclusive main result. Words in brackets tell the shape of the fitted curve; partial curves, single points and poor fits give uncertain potencies.
# Test: qHTS Assay for Lipid Storage Modulators in Drosophila S3 Cells;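 for cell number change: cells counted by Cell Tracker Red CMTPX staining in the red channel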
# Settings: BODIPY lipid droplet fluorescence, 18-24 h; for cell number change: measured here: cell count max response, cells fed with added oleic acid
# How it was run: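 Laser-scanning cytometry quantifies lipid droplet accumulation (500–530 nm total intensity; droplet/cell object ratio) in oleic acid-fed (400 uM added) Drosophila S3 cells treated with a concentration series. 20 uM Triacsin C defined 100% inhibition.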
# [1] = measured here: cell number channel AC50, cells fed with added oleic acid
# [2] = measured here: lipid fluorescence (Fed channel) AC50, cells fed with added oleic acid
SMILES,cell number change [%],AC50 [1],AC50 [2]
COc1ccc(NC(=O)CC2C(=O)N(c3ccc(OC)cc3)C(=O)N2Cc2ccc(OC)c(OC)c2)cc1 (stereo not given),-36.5,–,–
CC(=O)c1c(C)[nH]c(C(=O)OCC(=O)c2c[nH]c3ccccc23)c1C,-50.6,"29.1 µM [falling, single point]",–
COc1ccc(S(=O)(=O)N(C)CC(=O)NC2CCCCC2)cc1Cl,41.3,"29.1 µM [rising, single point]","6.51 µM [falling, single point]"
O=C(CSc1nc2ccccc2c(=O)[nH]1)Nc1ccc(N2CCOCC2)c(Cl)c1,8.57,–,"6.51 µM [falling, single point]"
CCCc1cc(=O)oc2cc(C)cc(OCC(=O)NCCCN3CCOCC3)c12,-2.97,–,"29.1 µM [rising, single point]"
COc1cc(OC)cc(C(=O)NC(C(=O)OCn2nnc3ccccc3c2=O)C(C)C)c1 (stereo not given),-0.774,–,"6.51 µM [falling, single point]"
COc1ccccc1C(=O)n1nc(-c2ccc(Cl)cc2)nc1N,-72.6,"11.6 µM [falling, partial curve]","29.1 µM [falling, single point]"
O=C(CNC(=O)c1ccccc1)N/N=C/c1cn[nH]c1-c1ccccc1,5.51,–,"6.51 µM [rising, single point]"
CN(C)S(=O)(=O)c1cccc(NC(=O)c2cccc(S(=O)(=O)N3CCCCCC3)c2)c1,–,–,"3.66 µM [falling, full curve]"
COCCN(C(=O)Cc1cccs1)C(C(=O)NCc1ccc(OC)cc1)c1ccc(OC)cc1 (stereo not given),-7.21,"3.66 µM [falling, single point]","29.1 µM [falling, single point]"
Cc1nnc(SCC(=O)Nc2cc(S(=O)(=O)N3CCCC3)ccc2Cl)n1C1CC1,0.98,"0.13 µM [rising, full curve, poor fit]","0.146 µM [rising, full curve, poor fit]"
O=C(OCCc1cc2ccccc2c(=O)o1)c1ccc2c(c1)OCO2,-43.7,"1.16 µM [falling, full curve]","0.82 µM [falling, single point]"
CSc1ccc(N2CCN(CCCNC(=O)Nc3ccccc3F)CC2)cc1,81.5,"14.6 µM [rising, partial curve, poor fit]","29.1 µM [rising, single point]"
O=S(=O)(c1ccc2c(c1)OCCO2)N1CCN(c2nc3ccccc3s2)CC1,16.6,–,"13 µM [rising, single point]"
COc1cc(/C=N/n2c(-c3cc(C)[nH]n3)n[nH]c2=S)cc(OC)c1OC,-23.6,"0.146 µM [falling, full curve, poor fit]","0.184 µM [falling, full curve, poor fit]"
O=C(CSc1nnc(-c2csc3c2CCCC3)o1)Nc1ccccc1,-74.4,"20.6 µM [falling, single point]","16.4 µM [falling, single point]"
N#CC1=C(N)Oc2cc(O)ccc2C1c1cccnc1 (stereo not given),–,"0.461 µM [rising, single point]","0.146 µM [rising, full curve]"
COc1cccc2c(=O)n(CC(=O)N3CCCCCC3)ccc12,–,"5.17 µM [falling, single point]","5.8 µM [falling, single point]"

# Three entries from above, sorted by SMILES length, descending.
SMILES,cell number change [%],AC50 [1],AC50 [2]
COc1cc(OC)cc(C(=O)NC(C(=O)OCn2nnc3ccccc3c2=O)C(C)C)c1 (stereo not given),-0.774,–,"6.51 µM [falling, single point]"
COc1cc(/C=N/n2c(-c3cc(C)[nH]n3)n[nH]c2=S)cc(OC)c1OC,-23.6,"0.146 µM [falling, full curve, poor fit]","0.184 µM [falling, full curve, poor fit]"
CCCc1cc(=O)oc2cc(C)cc(OCC(=O)NCCCN3CCOCC3)c12,-2.97,–,"29.1 µM [rising, single point]"

# (listing goes on)

SMILES,cell number change [%],AC50 [1],AC50 [2]
COc1cccc(N2CC(C(=O)NC3CCCCC3)CC2=O)c1 (stereo not given),-9.88,"0.259 µM [rising, full curve, poor fit]",–
O=C(c1ccc(Cl)nc1)N1CCC(Cc2ccccc2)CC1,-4.46,–,–
O=C(N=c1ccn(-c2nc3ccccc3nc2NS(=O)(=O)c2ccc(Cl)cc2)cc1)c1ccccc1Cl,-7.62,–,"0.0731 µM [falling, full curve, poor fit]"
O=C(Nc1nc(-c2ccccc2)nc2ccccc12)c1ccc(F)cc1,–,–,"6.51 µM [rising, single point]"
Clc1ccc(OCCCCN2CCCCC2)cc1,-22.2,–,–
CCc1ccccc1OCC(=O)Nc1ccc(S(N)(=O)=O)cc1,-4.67,–,"9.2 µM [rising, partial curve]"
CCC(Oc1ccccc1)C(=O)Nc1ccccc1OC (stereo not given),12.7,–,"0.651 µM [falling, single point]"
COc1ccccc1CNC1CCCc2ccccc21 (stereo not given),-0.794,–,"23.1 µM [rising, partial curve]"
CC(=O)O/N=C/c1c(N2CCOCC2)n(C)c2ccccc12,12.6,–,–
Oc1ccccc1/C=N/NC(=S)NC1CC2CC1C1C=CCC21 (stereo not given),-59,"29.1 µM [falling, single point]","32.6 µM [falling, single point]"
O=C(COc1ccccc1[N+](=O)[O-])Nc1ccc2c(c1)CCC2,-26.1,–,"0.00411 µM [rising, full curve, poor fit]"
Cc1cccc(N2CCN(C(=O)CCc3nc4ccccc4[nH]3)CC2C)c1 (stereo not given),5.88,–,"1.3 µM [rising, partial curve]"
O=C(c1ccccc1-c1nc(-c2ccccc2)no1)N1CCOCC1,58.7,"13 µM [rising, partial curve, poor fit]","6.51 µM [falling, single point]"
Cc1ccc(S(=O)(=O)Nc2ccc(-c3nnc(SCC#N)n3C)cc2)cc1,19.5,–,"29.1 µM [rising, single point]"
CC(C)C[C@H](NC(=O)c1nc[nH]c1C(=O)N[C@@H](CC(C)C)C(=O)OCc1ccccc1)C(=O)OCc1ccccc1,70.7,"20.6 µM [rising, single point]",–
CC(C)(C)C1(c2ccccc2)NC(=O)N(CC(=O)N2CCOCC2)C1=O (stereo not given),5.52,–,–
Cc1ccccc1SCC(=O)N/N=C/c1ccc(F)cc1,-28,–,"29.1 µM [falling, single point]"
Cc1ccc(/C=C(/C#N)C(=O)NC(=O)Oc2ccccc2)cc1,5.95,–,"29.1 µM [falling, single point]"
